Values of other authors in patent US5248771A, “Process for preparing no-carrier-added radiohalogenated vinyl nucleosides” (Triumf, priority 1991, dated 1993).
At least one structure is not confirmed: it was looked up by name or label, or the drawing left a doubt.

Details: cited from earlier work

For `O=c1[nH]c(=O)n([C@@H]2O[C@H](CO)[C@@H](O)[C@@H]2O)cc1/C=C/Br` [BrVaraU, (E)-5(2 bromo vinyl)-arabinofuranosyl uracil], the “potency in vivo per unit weight” value is given as “highly potent in vivo per unit weight”.
